PubChem BioAssay AID1259425 | University of Nebraska Medical Center | 2018
Here is one part, drawn at random, of about 14,000 deposited reagents. Further read-outs or replicates are left out here. Reagent sequences are not shown. Not given: the time to read-out.

Assay: 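Compare each knockdown with KSR1 silencing using changes in marker transcripts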 (primary screen)
Cell system: HCT116 human colon cancer cells
Reagents: siRNA pool against human genes, 50 nM siRNA
Measurement: 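mRNA of six signature genes measured together by branched-DNA assay after 50 nM siRNA pool, blank removed, divided by geometric mean of two housekeeping genes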
Reading the numbers: BNIP3L mRNA: higher = more BNIP3L transcript after knockdown; NDRG1 mRNA: higher = more NDRG1 transcript after knockdown; BNIP3 mRNA: higher = more BNIP3 transcript after knockdown; ALDOC mRNA: higher = more ALDOC transcript after knockdown

gene knocked down	BNIP3L mRNA, set 1	NDRG1 mRNA, set 1	BNIP3 mRNA, set 1	ALDOC mRNA, set 1
NSMF	0.109	0.159	0.4	0.0087
UGT2B28	0.0611	0.0594	0.348	0.021
LY75	0.14	0.509	0.202	0.0169
ERBB3	0.216	0.0623	0.796	0.0343
SUPT6H	0.165	0.805	0.316	0.122
MTO1	0.0802	0.292	0.419	0.0212
GID4	0.117	0.37	0.426	0.057
CFAP410	0.17	0.262	0.323	0.0369
SAP30	0.0225	0.0946	0.224	0.00443
DALRD3	0.0725	0.0592	0.23	0.00683

An excerpt from above, showing only “BNIP3 mRNA, set 1”:
CFAP410: 0.323
SAP30: 0.224

The listing continues:
gene knocked down	BNIP3L mRNA, set 1	NDRG1 mRNA, set 1	BNIP3 mRNA, set 1	ALDOC mRNA, set 1
THUMPD1	0.122	0.255	0.34	0.0135
IQCN	0.138	0.0829	0.413	0.0125
PPP1R26	0.0118	0.208	0.254	0.0217
CDHR5	0.101	0.229	0.155	0.0119
RAPGEF6	0.292	1.22	0.524	0.0118
CST4	0.171	0.268	0.305	0.0345
TSC22D4	0.159	0.205	0.411	0.0539
IRX5	0.132	0.21	0.367	0.0391
PXMP2	0.0938	0.208	0.449	0.00987
NECAB2	0.0915	0.223	0.401	0.0301
